Test results: PubChem BioAssay AID2685 (National Center for Advancing Translational Sciences (NCATS), 2010)
This is one part of the list. The main result of the screen is listed elsewhere. These columns were measured beside it and carry no call. Compounds called inactive in the main read-out are mostly missing here. The note in brackets gives the kind of curve behind each potency; many fits are weak.

Assay: qHTS Assay for Lipid Storage Modulators in Drosophila S3 Cells;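 for cell number change: cells counted by Cell Tracker Red CMTPX staining in the red channel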
Conditions: BODIPY lipid droplet fluorescence, 18-24 h; for cell number change: measured here: cell count max response, cells fed with added oleic acid
How it was run: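 Drosophila S3 cells got compounds at several concentrations plus oleic acid (400 uM solution). Laser-scanning cytometry with 488 nm excitation read lipid droplets at 500-530 nm and cells at 575-640 nm. Percent activity was relative to 20 uM Triacsin C.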

[1] = measured here: cell number channel AC50, cells fed with added oleic acid
[2] = measured here: lipid fluorescence (Fed channel) AC50, cells fed with added oleic acid

Row | SMILES | cell number change [%] | AC50 [1] | AC50 [2]
1 | O=C(CCn1nnnc1CN1CCOCC1)N1CCC(c2ccccc2Cl)C1 (stereo unspecified) | -4.88 |  | 
2 | COc1ccc(S(=O)(=O)NCc2ccccc2)cc1Br | 2.91 |  | 
3 | COc1ccc(/C=N/NC(=O)c2cccc([N+](=O)[O-])c2)cc1OC(=O)c1ccc(C)cc1 | -33.5 | 14.6 µM [falling, single point] | 18.4 µM [falling, single point]
4 | O=C(O)c1cn(Cc2ccccn2)c(=O)c2ccccc12 | -12.2 |  | 
5 | CCCCn1c(N)c(N(CCOC)C(=O)C2CCN(C(=O)c3ccc(Cl)cc3)CC2)c(=O)[nH]c1=O |  | 4.61 µM [rising, single point] | 
6 | O=C(O)CSc1ncccc1C(=O)O | -1.14 |  | 6.51 µM [rising, single point]
7 | CC(=O)Nc1ccc(N2CCCCC2)cc1 | 90.5 | 29.1 µM [rising, single point] | 23.1 µM [rising, partial curve]
8 | C[C@@H](CN1C2=NC[C@H](C)N2C[C@H]1Cc1ccc(O)cc1)NC(=O)CCC1CCCCC1 | -3.01 | 0.13 µM [falling, full curve, poor fit] | 
9 | CCn1c(SCC(=O)NCc2ccc3c(c2)OCO3)nc2c(c1=O)SCC2 | 2.64 |  | 
10 | OCCC1CN(CCCn2cccn2)CCN1Cc1ccccc1 (stereo unspecified) | 11 |  | 29.1 µM [rising, single point]
11 | COc1ccc(S(=O)(=O)c2c(C)c(NS(=O)(=O)c3ccccc3)cc(C)c2O)cc1 | 5.31 |  | 0.00461 µM [rising, full curve, poor fit]
12 | CCOC(=O)c1c(C)n(C)c2ccc(OC)c(NS(=O)(=O)c3ccc(Cl)s3)c12 | -13.4 |  | 
13 | O=C(CCC(=O)N1CCOc2ccc(Cl)cc21)NCc1ccccc1 | -14.1 |  | 20.6 µM [falling, single point]
14 | CCC(=O)NCCc1nc2cc(NC(=O)c3ccco3)ccc2n1C | -7.89 |  | 6.31 µM [rising, single point]
15 | Cc1onc(-c2ccccc2)c1C(=O)OCCOc1cccc(Cl)c1 | 28.7 |  | 
16 | O=[N+]([O-])c1ccc(/C=N/NC(=S)Nc2ccc(Cl)cc2Cl)s1 | -22.9 |  | 29.1 µM [falling, single point]
17 | Nc1ccc(N2CCCCC2)c2nonc12 | -22.2 |  | 6.51 µM [falling, partial curve]
18 | COCCCNCCOCCOc1ccc(Cl)cc1C(C)(C)C | 1.94 |  | 4.61 µM [falling, full curve]
19 | CCn1c(SCc2nc3sc(C(=O)O)c(C)c3c(=O)[nH]2)nnc1-c1ccc(Cl)cc1 | -32.1 |  | 
20 | Cc1ccc2nc(NC(=O)CSCC(=O)Nc3cc(C)on3)sc2c1 | -44.5 | 8.2 µM [falling, single point] | 0.146 µM [falling, full curve, poor fit]
21 | Cn1c(=O)c2c(nc(CN3CCN(Cc4ccccc4)CC3)n2Cc2ccc(Cl)cc2)n(C)c1=O | -23 |  | 0.00517 µM [rising, full curve, poor fit]

Exported as tab-separated lines: 2 of the compounds above.
Row	SMILES	cell number change [%]	AC50 [1]	AC50 [2]
16	O=[N+]([O-])c1ccc(/C=N/NC(=S)Nc2ccc(Cl)cc2Cl)s1	-22.9		29.1 µM [falling, single point]
18	COCCCNCCOCCOc1ccc(Cl)cc1C(C)(C)C	1.94		4.61 µM [falling, full curve]

The list goes on:

Row | SMILES | cell number change [%] | AC50 [1] | AC50 [2]
22 | O=C(CN1CCCCCC1)N/N=C/c1cccc(Cl)c1 | -4.65 | 6.51 µM [rising, single point] | 
23 | CCCC1C(C#N)=C(N)Oc2n[nH]c(C(C)(C)C)c21 (stereo unspecified) |  | 3.26 µM [rising, partial curve] | 3.66 µM [rising, partial curve]
24 | COc1ccc(C(=O)NCc2ccccc2CN2CCCC2)cc1S(=O)(=O)N1CCOCC1 | -1.87 |  | 0.206 µM [rising, full curve, poor fit]
25 | CCOc1ccc(C(C)C)cc1S(=O)(=O)n1ccnc1C | 6.86 |  | 
26 | Cc1[nH]c2c([N+](=O)[O-])cccc2c1C | -0.874 | 3.66 µM [falling, single point] | 6.51 µM [falling, single point]
27 | CCCCOc1ccc(CN=C(N)N)cc1Cl | -2.17 |  | 
28 | Cc1cc(-c2ccccc2)nc2cc(C(=O)NCc3ccco3)nn12 | -1.6 |  | 4.11 µM [rising, single point]
29 | O=C(Cn1ncc2c3ccccc3n(Cc3ccccc3)c2c1=O)N1CCN(c2ccccn2)CC1 | 10.1 |  | 0.13 µM [rising, full curve, poor fit]
30 | O=C(c1ccc2c(c1)OCO2)N1CCN(c2cccc(C(F)(F)F)c2)CC1 | -16.7 |  | 0.00461 µM [rising, full curve, poor fit]
31 | O=C(NCc1cccs1)C1CCCN(C(=O)Nc2ccc(F)cc2)C1 (stereo unspecified) | 11.8 |  | 
32 | COc1ccc(OC)c(CN2C(=O)CCC2(C)C(=O)NC2CCCCCC2)c1 (stereo unspecified) | -59.2 | 5.8 µM [falling, partial curve] | 4.11 µM [falling, partial curve]
33 | Clc1ccc(CNc2ncccn2)cc1 | 33.3 | 32.6 µM [rising, single point] | 
34 | O=C(O/N=C1\CCCc2ccccc21)C1CC1 | 54.8 |  | 
35 | O=C(Nc1ccc(Cl)cc1)c1cc2nc(C3CC3)cc(C(F)(F)F)n2n1 | 71 | 18.4 µM [rising, single point] | 
36 | Cc1cc(O)c(C(=O)/C=C/c2ccc(C(C)C)cc2)c(=O)o1 | 146 | 29.1 µM [rising, single point] | 
37 | OC(COc1c(F)cc(Br)cc1F)CN1CCN(c2ccc(F)cc2)CC1 (stereo unspecified) | -55.8 | 29.1 µM [falling, single point] | 29.1 µM [falling, single point]
38 | FC(F)(F)c1cc(NCc2cccs2)n2ncnc2n1 |  |  | 6.51 µM [falling, single point]
39 | Cc1nn(-c2ccc(F)cc2)c2sc(C(=O)N3CCCCCC3)cc12 |  |  | 4.11 µM [rising, partial curve]
40 | CC1CN(Cc2csc(-c3ccc(Cl)cc3)n2)CC(C)O1 (stereo unspecified) | 4.33 |  | 2.91 µM [rising, single point]
41 | CCOc1ccccc1NC(=O)CCCNC(=O)Cn1cnc2sc(C)c(C)c2c1=O | 27.9 |  | 29.1 µM [rising, single point]
42 | O=C(CSc1cnc2ccccc2n1)NC1CCCC1 | 35.7 |  | 0.13 µM [falling, full curve, poor fit]
